From PMC6735515
Results are given in words; binding and its absence hold for the method and conditions named. Binding seen in cells or lysates may run through a third protein.

By UniProt entry, the sequences of proteins in these tests, tags left out. Where a name states a change or a piece, a line headed by the entry shows the natural chain unless it says otherwise. Residues count along the entry.
UniProt Q03135: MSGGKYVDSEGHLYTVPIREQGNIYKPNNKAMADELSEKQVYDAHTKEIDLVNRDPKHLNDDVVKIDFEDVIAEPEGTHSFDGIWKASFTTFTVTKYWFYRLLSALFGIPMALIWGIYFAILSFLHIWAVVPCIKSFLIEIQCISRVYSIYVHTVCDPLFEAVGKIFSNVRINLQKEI
UniProt Q9NR96, residues 26-1032: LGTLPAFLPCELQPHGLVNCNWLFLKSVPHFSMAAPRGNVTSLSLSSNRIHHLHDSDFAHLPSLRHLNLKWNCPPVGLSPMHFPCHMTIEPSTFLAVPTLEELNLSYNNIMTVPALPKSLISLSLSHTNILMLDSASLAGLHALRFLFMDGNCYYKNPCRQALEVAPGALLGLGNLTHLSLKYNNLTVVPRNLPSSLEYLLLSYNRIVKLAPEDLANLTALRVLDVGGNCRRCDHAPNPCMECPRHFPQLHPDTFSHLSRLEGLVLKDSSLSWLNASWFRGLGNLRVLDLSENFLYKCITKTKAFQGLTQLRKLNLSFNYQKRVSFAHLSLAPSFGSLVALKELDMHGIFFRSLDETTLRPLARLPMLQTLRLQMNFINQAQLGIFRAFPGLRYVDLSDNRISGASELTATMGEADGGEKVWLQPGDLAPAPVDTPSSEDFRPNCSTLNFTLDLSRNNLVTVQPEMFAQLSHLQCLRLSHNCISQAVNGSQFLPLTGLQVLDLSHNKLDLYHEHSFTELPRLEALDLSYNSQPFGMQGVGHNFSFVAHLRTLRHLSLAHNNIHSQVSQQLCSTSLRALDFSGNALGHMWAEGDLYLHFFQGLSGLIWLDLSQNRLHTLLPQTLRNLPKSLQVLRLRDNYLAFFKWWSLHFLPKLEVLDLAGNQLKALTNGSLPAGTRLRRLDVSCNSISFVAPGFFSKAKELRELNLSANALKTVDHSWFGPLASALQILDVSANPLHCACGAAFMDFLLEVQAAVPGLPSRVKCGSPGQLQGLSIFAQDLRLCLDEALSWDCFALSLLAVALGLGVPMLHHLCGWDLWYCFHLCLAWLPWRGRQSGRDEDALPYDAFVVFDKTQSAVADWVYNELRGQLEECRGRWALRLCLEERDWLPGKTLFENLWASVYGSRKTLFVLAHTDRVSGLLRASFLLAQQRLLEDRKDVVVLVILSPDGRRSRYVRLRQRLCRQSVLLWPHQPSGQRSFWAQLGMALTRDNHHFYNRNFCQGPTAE

Molecular target: Cav-1 ΔCSD (UniProt Q03135)
Assay: co-IP; H9c2 cells co-transfected with Cav-1 and TLR9 (wild type or mutant), lysates 24 h after transfection, immunoprecipitation with anti-Cav-1 or anti-TLR9 antibodies, immunoblot

With “TLR9 WT (from UniProt Q9NR96 26-1032) (receptor)” as the substance, how does the binding read?
Its binding is “no binding”.
